The values that follow come from PubChem BioAssay AID1508600 (Functional Genomics Laboratory (NCATS/FGL), 2020).

The campaign covered roughly 53,000 sequences. About 3,700 (7%) were called active.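 The calls were made as follows: active = gene knockdowns whose robust z-score for IL-1 alpha signal is at least 2 or at most -2, so actives lie on both sides; inactive = the rest.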 The list shows a part of the results.

This assay is described as follows: Components of the Cytosolic LPS Sensing Pathway: Gene Identification via Genome-wide siRNA Screen.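 Also: robust z of the log signal after scaling to non-targeting control siRNA wells of the plate.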 The settings on record: RAW264.7 macrophages, IL-1a HTRF, actives lie on both sides, screened at 100 nM (by protocol), cells primed 5 h with Pam3CSK4 first. In short, it runs like this:
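Mouse macrophage line RAW264.7 is transfected with siRNA (100 nM final), grown 48h, primed with TLR ligand Pam3CSK4 5 h and given intracellular LipidA 24 h. IL-1a in supernatant is read by HTRF and viability by luminescence.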
Take CUCUGGUUCCUAUUAGUAGTT against Vmn1r93: the z-score is inactive: 0.272.
On to GGGCCAAAUAGCUAUGCAGTT against Aldoc, for which the z-score was inactive: -0.309.
On to GGUGUGGAUGUGGUUUUAUTT against Atp5l, for which the z-score is inactive: 0.731.
As for GGGCAUUGUCAUGGAGAAUTT against Clstn3, the figure is inactive: -0.455; as for CGCAUGUGGAAAUGUAACATT against Kbtbd4, inactive: 0.31.
Then CGGGUGAUGUCAAGUUACUTT against Amy1, with inactive: -0.335; and GGCAGAGGCCUUGUGUUUATT against Piwil2, with inactive: 1.86; and GGUGAAUGUGUGGAUUAUCTT against Itih2, with inactive: -0.684.
With GCCCACACUUGCUAAUGAATT against Ppp1r26, the z-score was inactive: 0.468.
Then CCGAAAAGUGUGGCGAGAATT against Arid3c, with inactive: -0.285.
As for GGCUCUCUUCGGGAAUACUTT against Tmem234, the figure is inactive: 1.22; as for GGACUCAGGGACCUUAUUATT against Apobec1, inactive: 0.443; as for GGUGAAGUCUGUGAGCAUUTT against Gna12, inactive: 0.104.
Then GGAGAUUGGUGUUAGUAACTT against Sp7, with inactive: -0.198; and GCAAUUCCUGGACAUUUAATT against Prkcd, with inactive: -0.522; and GACAUACCAGCCGUAUAACTT against Erh, with active: -2.39.
Take GGAAGAAAGAGAAAACCUCTT against Slc4a3: the z-score is inactive: -0.0414.
Then GGAUUUGUCACCAUUCUGCTT against Peg10, with inactive: -0.0257.
GGCAUGUUUCUUGACUUAATT against Coil: the z-score was inactive: 0.122.
As for GCCGGUUAUUUAUUUGUCATT against Sostdc1, the figure is inactive: -0.482.
As for CGAAUGUCCUGGAAGCAAATT against Olfr142, the figure is inactive: -0.0904; as for GGAUUGGUUAUCAGGGCUATT against Rps19bp1, inactive: -0.53; as for GGAACCUAACUAACAAUACTT against Rab14, inactive: 0.584.
As for GGCUUGAGUUUGAAGAAAUTT against Rb1, the figure is inactive: -0.0607.
On to GGUUUUCUCUAAGCUGAAATT against Lum, for which the z-score is inactive: -1.
Then GGGUAAAGGAGAUUGUGAUTT against Ppfibp2, with inactive: -0.103; and GGACAGGUGGUUACCAUAGTT against Arid2, with inactive: -0.251; and CCCAAGACUGGUCUUCCCATT against Slc12a8, with inactive: -1.98.
As for CGAAUAUGGUAUUCACUCATT against Skint4, the figure is inactive: 0.157.
